# According to publication PMC12646323:
# The exact form of at least one protein or probe is not confirmed.
# Test system: Mak16 (yeast His6-Mak16) + Rpf1-Δ58 del1-58
# Assay: EMSA
# Settings: [4Fe-4S] cluster, defined complex upon stoichiometric mixing, 0.8 µg ES7; 0.8 µg ES7, 5% nondenaturing acrylamide gel, GelRed then Coomassie stain; recombinant protein; probe letters rebuilt from the primers and the genome; part of a longer molecule
sequence,measurement,value
CAUUUGAUCAGACAUGGUGUUUUGUGCCCUCUGCUCCUUGUGGGUAGGGGAAUCUCGCAUUUCACUGGGCCAGCAUCAGUUUUGGUGGCAGGAUAAAUCCAUAGGAAUGUAGCUUGCCUCGGUAAGUAUUAUAGCCUGUGGGAAUACUGCCAGCUGGGACUGAGGACUGCGACGUAAGUCAAGGAUGCUGGCAUAAUGGUUAUAUGCC [ES7 RNA (25S rRNA expansion segment 7)],binding result,binds
